The supplement of paper PMC10849652
The other results are listed elsewhere or left out.

By UniProt entry, the sequences of proteins in these tests, tags left out. Where a name states a change or a piece, a line headed by the entry shows the natural chain unless it says otherwise.
UniProt Q16831: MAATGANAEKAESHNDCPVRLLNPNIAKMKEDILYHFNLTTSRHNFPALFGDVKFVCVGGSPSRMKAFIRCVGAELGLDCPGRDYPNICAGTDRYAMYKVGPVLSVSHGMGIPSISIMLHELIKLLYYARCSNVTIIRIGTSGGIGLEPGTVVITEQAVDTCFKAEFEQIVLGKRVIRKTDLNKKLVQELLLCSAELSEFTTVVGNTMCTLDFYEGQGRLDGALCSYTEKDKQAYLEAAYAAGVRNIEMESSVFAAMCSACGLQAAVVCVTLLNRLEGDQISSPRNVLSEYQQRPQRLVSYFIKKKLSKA
UniProt Q9UPT9: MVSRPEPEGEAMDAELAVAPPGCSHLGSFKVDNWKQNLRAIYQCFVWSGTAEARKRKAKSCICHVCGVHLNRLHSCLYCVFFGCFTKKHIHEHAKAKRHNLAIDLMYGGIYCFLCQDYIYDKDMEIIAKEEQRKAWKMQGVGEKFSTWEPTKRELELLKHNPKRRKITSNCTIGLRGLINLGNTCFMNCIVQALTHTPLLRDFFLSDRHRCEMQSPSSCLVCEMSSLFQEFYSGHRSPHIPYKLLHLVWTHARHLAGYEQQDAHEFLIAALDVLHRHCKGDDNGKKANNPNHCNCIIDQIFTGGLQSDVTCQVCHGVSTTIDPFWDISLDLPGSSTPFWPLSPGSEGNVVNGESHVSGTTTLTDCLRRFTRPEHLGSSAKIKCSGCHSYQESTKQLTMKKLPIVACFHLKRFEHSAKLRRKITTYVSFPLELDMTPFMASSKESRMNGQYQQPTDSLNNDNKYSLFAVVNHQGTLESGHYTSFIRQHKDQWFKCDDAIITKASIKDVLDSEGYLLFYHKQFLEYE
UniProt Q8IZJ1, whole entry, looked up: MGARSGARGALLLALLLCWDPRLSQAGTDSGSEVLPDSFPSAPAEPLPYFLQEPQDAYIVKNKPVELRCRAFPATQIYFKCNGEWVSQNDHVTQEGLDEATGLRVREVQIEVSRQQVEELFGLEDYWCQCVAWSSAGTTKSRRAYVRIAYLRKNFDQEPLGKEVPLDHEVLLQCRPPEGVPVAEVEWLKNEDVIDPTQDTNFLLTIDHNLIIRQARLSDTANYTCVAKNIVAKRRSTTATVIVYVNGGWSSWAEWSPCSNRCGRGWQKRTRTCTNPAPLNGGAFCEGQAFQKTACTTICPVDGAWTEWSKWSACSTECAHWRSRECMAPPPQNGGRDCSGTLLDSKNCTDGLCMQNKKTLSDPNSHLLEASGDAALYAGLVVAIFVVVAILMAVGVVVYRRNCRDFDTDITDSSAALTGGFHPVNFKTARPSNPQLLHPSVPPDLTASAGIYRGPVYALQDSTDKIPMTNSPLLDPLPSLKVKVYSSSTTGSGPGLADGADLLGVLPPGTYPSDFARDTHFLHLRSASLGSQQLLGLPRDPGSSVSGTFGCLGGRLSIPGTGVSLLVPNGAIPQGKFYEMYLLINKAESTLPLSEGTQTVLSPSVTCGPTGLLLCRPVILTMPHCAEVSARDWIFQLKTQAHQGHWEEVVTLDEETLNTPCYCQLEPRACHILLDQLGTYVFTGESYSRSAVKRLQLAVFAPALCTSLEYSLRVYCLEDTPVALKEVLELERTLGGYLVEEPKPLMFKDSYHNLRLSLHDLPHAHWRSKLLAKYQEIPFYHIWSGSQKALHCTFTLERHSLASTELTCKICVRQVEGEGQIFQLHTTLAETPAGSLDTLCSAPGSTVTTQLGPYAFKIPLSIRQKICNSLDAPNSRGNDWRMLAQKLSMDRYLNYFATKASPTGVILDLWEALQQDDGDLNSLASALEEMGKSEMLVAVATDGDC
UniProt Q9BTM9: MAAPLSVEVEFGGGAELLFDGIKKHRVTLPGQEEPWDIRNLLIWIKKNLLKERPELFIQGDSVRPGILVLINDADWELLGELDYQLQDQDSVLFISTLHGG
UniProt Q6UW78: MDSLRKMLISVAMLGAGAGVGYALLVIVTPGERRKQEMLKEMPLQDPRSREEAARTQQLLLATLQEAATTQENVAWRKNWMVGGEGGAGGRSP
UniProt Q13107: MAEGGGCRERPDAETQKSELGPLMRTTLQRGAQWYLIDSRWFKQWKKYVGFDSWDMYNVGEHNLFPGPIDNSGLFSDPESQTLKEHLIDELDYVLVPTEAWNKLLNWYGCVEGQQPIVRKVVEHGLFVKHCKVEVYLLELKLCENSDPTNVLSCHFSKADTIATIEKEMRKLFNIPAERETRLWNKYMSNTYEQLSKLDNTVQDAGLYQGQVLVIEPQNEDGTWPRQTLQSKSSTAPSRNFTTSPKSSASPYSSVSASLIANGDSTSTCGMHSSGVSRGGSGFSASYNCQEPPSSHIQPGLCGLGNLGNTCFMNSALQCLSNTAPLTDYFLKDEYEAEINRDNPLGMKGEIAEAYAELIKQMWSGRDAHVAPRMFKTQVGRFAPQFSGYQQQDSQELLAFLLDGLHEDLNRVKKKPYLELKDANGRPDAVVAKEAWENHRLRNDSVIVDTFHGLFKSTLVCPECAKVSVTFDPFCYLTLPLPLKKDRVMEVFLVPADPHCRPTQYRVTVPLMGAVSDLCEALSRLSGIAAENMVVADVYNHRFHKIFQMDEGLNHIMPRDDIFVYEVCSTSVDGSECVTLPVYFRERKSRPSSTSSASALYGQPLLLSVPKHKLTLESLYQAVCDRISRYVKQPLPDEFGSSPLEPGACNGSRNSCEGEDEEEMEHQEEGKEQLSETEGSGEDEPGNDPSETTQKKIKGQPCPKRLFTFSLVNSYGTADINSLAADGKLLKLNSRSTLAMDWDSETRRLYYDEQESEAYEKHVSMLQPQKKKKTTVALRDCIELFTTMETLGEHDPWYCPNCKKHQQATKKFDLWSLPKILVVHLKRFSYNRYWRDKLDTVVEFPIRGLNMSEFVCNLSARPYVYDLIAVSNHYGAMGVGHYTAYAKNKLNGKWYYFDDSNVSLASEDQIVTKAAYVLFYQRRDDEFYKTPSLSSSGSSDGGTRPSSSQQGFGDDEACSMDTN
UniProt P15498: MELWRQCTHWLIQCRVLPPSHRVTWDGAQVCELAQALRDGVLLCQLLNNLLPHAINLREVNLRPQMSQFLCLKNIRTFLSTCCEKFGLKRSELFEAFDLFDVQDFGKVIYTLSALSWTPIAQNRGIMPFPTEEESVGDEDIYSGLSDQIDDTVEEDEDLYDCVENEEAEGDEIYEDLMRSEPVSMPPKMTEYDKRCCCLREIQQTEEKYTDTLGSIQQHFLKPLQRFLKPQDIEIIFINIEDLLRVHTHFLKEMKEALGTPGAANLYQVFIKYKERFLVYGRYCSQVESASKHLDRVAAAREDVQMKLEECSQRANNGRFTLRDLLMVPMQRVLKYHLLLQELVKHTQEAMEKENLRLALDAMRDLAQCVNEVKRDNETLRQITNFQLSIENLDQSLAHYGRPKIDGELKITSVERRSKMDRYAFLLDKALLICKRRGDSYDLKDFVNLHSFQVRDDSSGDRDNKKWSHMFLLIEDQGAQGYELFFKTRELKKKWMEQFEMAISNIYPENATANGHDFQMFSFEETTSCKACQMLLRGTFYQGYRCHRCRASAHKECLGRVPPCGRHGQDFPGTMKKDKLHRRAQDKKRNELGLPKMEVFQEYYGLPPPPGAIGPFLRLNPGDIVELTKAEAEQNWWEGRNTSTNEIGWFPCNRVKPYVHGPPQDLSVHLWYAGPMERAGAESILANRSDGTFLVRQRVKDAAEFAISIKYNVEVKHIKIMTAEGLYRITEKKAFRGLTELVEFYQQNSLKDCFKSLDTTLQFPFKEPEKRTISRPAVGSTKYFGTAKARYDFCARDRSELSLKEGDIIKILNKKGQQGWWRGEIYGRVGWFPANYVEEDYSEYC
UniProt Q6ZU65, whole entry, looked up: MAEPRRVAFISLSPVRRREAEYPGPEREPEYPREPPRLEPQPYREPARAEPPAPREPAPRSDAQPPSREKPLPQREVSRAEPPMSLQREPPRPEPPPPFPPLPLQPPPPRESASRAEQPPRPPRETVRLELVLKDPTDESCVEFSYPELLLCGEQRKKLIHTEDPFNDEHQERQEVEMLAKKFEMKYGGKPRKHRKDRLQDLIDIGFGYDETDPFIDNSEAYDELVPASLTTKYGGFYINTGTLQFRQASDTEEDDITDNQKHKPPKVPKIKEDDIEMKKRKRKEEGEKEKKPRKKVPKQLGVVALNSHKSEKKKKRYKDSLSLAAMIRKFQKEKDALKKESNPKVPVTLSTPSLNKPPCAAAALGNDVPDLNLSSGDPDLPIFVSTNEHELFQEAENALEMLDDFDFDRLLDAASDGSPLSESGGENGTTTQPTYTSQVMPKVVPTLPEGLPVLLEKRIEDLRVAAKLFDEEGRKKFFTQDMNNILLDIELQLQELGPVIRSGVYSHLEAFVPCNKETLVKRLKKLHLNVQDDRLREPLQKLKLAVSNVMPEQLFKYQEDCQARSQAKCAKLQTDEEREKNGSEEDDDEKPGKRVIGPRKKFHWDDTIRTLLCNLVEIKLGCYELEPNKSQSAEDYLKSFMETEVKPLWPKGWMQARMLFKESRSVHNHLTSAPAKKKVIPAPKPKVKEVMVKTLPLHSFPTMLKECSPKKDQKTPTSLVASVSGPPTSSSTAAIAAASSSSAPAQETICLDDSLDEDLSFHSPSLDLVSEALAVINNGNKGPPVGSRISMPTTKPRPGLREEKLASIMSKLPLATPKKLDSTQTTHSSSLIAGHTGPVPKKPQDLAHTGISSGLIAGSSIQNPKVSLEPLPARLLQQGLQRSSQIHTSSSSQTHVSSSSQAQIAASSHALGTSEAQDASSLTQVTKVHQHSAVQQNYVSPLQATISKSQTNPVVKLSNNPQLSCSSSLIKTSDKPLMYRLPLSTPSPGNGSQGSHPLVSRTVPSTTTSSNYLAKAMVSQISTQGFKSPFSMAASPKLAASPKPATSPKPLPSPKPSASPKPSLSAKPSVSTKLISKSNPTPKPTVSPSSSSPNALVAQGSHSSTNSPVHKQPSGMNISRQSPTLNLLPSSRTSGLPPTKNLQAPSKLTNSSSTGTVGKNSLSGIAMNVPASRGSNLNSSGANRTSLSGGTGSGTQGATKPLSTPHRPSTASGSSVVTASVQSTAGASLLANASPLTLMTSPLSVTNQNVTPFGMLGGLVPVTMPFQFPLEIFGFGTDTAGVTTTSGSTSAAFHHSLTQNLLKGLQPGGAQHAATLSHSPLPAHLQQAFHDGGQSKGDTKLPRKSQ
UniProt Q5TAP6: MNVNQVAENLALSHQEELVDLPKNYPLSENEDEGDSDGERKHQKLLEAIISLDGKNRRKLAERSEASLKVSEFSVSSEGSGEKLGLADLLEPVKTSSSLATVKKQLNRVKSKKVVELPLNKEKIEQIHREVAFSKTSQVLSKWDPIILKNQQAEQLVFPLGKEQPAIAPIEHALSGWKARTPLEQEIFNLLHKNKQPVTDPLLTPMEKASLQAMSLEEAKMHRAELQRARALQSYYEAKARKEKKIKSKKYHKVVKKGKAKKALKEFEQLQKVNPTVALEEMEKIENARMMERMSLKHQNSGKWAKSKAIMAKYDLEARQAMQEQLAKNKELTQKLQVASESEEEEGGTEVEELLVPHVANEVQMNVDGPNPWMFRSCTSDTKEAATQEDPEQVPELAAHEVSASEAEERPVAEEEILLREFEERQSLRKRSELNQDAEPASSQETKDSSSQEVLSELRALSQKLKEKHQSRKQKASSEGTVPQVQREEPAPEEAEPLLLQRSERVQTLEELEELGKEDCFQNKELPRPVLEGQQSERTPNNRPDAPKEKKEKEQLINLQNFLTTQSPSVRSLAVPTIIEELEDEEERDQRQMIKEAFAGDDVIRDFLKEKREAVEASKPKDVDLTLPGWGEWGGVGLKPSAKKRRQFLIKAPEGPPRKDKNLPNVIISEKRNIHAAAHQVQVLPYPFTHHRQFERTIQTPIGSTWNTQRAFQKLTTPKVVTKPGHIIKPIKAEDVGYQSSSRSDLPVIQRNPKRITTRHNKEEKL
UniProt Q9H347: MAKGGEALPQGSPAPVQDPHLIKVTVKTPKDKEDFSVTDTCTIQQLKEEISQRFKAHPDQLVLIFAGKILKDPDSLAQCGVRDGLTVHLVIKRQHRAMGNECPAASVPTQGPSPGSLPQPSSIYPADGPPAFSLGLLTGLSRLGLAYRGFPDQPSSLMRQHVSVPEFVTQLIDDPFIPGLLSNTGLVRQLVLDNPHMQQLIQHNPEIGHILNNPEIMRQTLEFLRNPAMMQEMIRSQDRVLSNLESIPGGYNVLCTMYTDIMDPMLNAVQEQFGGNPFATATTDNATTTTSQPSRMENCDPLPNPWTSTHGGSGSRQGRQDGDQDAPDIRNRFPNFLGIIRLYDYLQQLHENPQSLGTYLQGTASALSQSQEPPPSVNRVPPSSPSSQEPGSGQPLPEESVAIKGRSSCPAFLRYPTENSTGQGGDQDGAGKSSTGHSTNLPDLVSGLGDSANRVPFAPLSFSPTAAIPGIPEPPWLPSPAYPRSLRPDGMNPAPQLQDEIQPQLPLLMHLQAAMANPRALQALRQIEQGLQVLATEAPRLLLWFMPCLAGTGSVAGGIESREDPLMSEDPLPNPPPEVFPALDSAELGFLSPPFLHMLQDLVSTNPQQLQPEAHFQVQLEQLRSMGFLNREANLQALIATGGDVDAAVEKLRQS

Experiments:
Assay in all cases: log2 fold change, soluble protein after heating vs DMSO (PISA); higher = thermal stabilisation; K562 cells, 10 uM, 30 min; active = over 0.2 and 3.5 SD of the protein, either way, in both replicates (recomputed)
[1] = compound: CC1=CC=C(C=C1)SC2=C3C=C(SC3=CN=C2)C(=O)N
Summary of the method: (§1)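 K562 cells at 2×10^6 cells/mL were given 10 μM compound for 30 min. Aliquots then went through 3 min of heating across 48°C-58°C, were pooled, and were extracted in PBS with 0.5% NP-40 at 4°C, and the supernatant after 21,000xg for 90 min was quantified by TMTpro 16plex LC-MS/MS with channel sums equalised. Thermal stability relative to control samples, from duplicates, is given as log2 fold change.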

[2] = compound: CC1=NC(=CC=C1)C2=C(N=C(N2)C(C)(C)C)C3=CC4=NC=CN=C4C=C3
Summary of the method: as §1

[3] = compound: CCCS(=O)(=O)Nc1ccc(F)c(C(=O)c2c[nH]c3ncc(Cl)cc23)c1F
Summary of the method: as §1

[4] = compound: CC1=C(C=C(C=C1)NC(=O)C2=CC(=CC=C2)C(C)(C)C#N)NC3=CC4=C(C=C3)N=CN(C4=O)C
Summary of the method: as §1

Nexturastat A = compound: CCCCN(Cc1ccc(C(=O)NO)cc1)C(=O)Nc1ccccc1 [Nexturastat A]
Summary of the method: as §1

vemurafenib = compound: CCCS(=O)(=O)Nc1ccc(F)c(C(=O)c2c[nH]c3ncc(-c4ccc(Cl)cc4)cc23)c1F [vemurafenib]
Summary of the method: as §1

givinostat = compound: CCN(CC)Cc1ccc2cc(COC(=O)Nc3ccc(C(=O)NO)cc3)ccc2c1 [givinostat]
Summary of the method: as §1

[5] = compound: CCCc1cc(C)[nH]c(=O)c1CNC(=O)c1cc(-c2ccnc(N3CCN(C)CC3)c2)cc2c1cnn2C(C)C
Summary of the method: as §1

barasertib = compound: CCN(CCCOc1ccc2c(Nc3cc(CC(=O)Nc4cccc(F)c4)[nH]n3)ncnc2c1)CCOP(=O)(O)O [barasertib]
Summary of the method: as §1

[6] = compound: CC1=C(C=C(C=C1)NC(=O)C2=CC(=CC=C2)N(C)C)NC(=O)C3=CC=C(C=C3)O
Summary of the method: as §1

Measured: log2 fold change

UPP1 (UniProt Q16831)
inactive: [1] 0.062 | [2] -0.003 | [3] 0.091

VCPIP1 (UniProt Q96JH7)
inactive: [4] -0.053 | Nexturastat A 0.516 | vemurafenib -0.535 | givinostat -0.157

UEVLD (UniProt Q8IX04)
inactive: [4] -0.109 | [2] -0.287 | Nexturastat A 0.131 | vemurafenib 0.203 | [5] -0.14 | givinostat 0.226 | barasertib -0.241

USP22 (UniProt Q9UPT9)
inactive: [4] 0.014 | [1] 0.005 | [2] 0.003 | Nexturastat A 0.071 | vemurafenib -0.066 | [3] 0.038 | [5] -0.012 | givinostat 0.035 | barasertib 0.167

USP16 (UniProt Q9Y5T5)
inactive: [6] -0.012 | [2] -0.053 | Nexturastat A 0.279 | vemurafenib 0.008 | [5] -0.005 | givinostat 0.1 | barasertib -0.262

USP54 (UniProt Q70EL1)
inactive: [1] -0.041 | vemurafenib 0.099 | [3] 0.055 | [5] -0.082 | givinostat -0.157 | barasertib 0.019

UNK (UniProt Q9C0B0)
inactive: [4] 0.053 | [1] -0.02 | [2] 0.045 | vemurafenib -0.077 | [3] -0.029 | [5] 0.04 | givinostat -0.108 | barasertib -0.012

VAMP3 (UniProt Q15836)
inactive: [2] 0.038 | Nexturastat A -0.059 | [5] 0.007 | givinostat -0.014 | barasertib -0.031

UGP2 (UniProt C9JWG0)
inactive: [4] 0.073 | [2] -0.162 | [5] -0.011 | barasertib 0

2 neighbouring records out of the list so far, quoted:
UPP1 (UniProt Q16831)
inactive: [1] 0.062 | [2] -0.003 | [3] 0.091

VCPIP1 (UniProt Q96JH7)
inactive: [4] -0.053 | Nexturastat A 0.516 | vemurafenib -0.535 | givinostat -0.157

Later entries.

USP27X (UniProt A6NNY8)
inactive: [6] -0.032 | Nexturastat A 0.074

UNC5B (UniProt Q8IZJ1)
inactive: Nexturastat A -0.003 | vemurafenib -0.081

UFM1 isoform 2 (UniProt P61960)
inactive: [4] 0.004 | [1] -0.01 | vemurafenib -0.13 | [3] 0.001 | [5] 0.127 | givinostat -0.146 | barasertib 0.053
active: Nexturastat A -0.36

UMAD1 (UniProt C9J7I0)
inactive: [6] -0.034 | [1] 0.062 | [2] 0.013 | [3] -0.141 | [5] -0.066 | givinostat -0.237 | barasertib -0.08

USP48 (UniProt Q86UV5)
inactive: [4] -0.096 | [5] -0.232 | givinostat 0.237 | barasertib 0.252

USB1 (UniProt Q9BQ65)
inactive: [1] 0.128 | vemurafenib 0.058 | [3] -0.046 | givinostat 0.286

URB2 (UniProt Q14146)
inactive: [2] -0.188 | givinostat -0.206 | barasertib -0.014

UPF3A (UniProt Q9H1J1)
inactive: [4] -0.158 | [2] -0.196 | Nexturastat A 0.435 | givinostat 0.001

UNC13A (UniProt Q9UPW8)
inactive: [4] 0.117 | givinostat -0.159 | barasertib -0.102

USP33 (UniProt Q8TEY7)
inactive: [4] 0.124 | [6] -0.089 | vemurafenib 0.029 | givinostat 0.263

UQCR11 (UniProt O14957)
inactive: [6] -0.047 | [2] 0.048 | [5] -0.067 | givinostat -0.007

URM1 isoform 2 (UniProt Q9BTM9)
inactive: [4] -0.071 | [6] -0.035 | [2] -0.085 | vemurafenib 0.302 | [5] 0.025 | givinostat 0.044 | barasertib 0.082

UFSP1 (UniProt Q6NVU6)
inactive: givinostat 0.049

UBQLN1 isoform 2 (UniProt Q9UMX0)
inactive: [5] -0.087 | givinostat -0.022

UQCC3 (UniProt Q6UW78)
inactive: Nexturastat A -0.005 | barasertib 0.154

VASN (UniProt Q6EMK4)
inactive: [4] 0.006 | Nexturastat A 0.001 | vemurafenib -0.13 | givinostat 0.031 | barasertib -0.006

UBR1 (UniProt Q8IWV7)
inactive: [4] -0.104 | Nexturastat A -0.017 | [5] 0.089 | givinostat 0.296 | barasertib -0.005

USP4 (UniProt Q13107)
inactive: [2] -0.16

VAV1 (UniProt P15498)
inactive: [6] 0.081 | Nexturastat A 0.192 | vemurafenib 0.111 | [5] -0.178 | givinostat 0.285

UBR3 isoform 4 (UniProt Q6ZT12)
inactive: [4] 0.017 | [1] 0.038 | [2] 0.069 | Nexturastat A 0.105 | vemurafenib -0.044 | [3] -0.119 | givinostat -0.067 | barasertib -0.239

UNG (UniProt P13051)
inactive: [4] 0.057 | Nexturastat A 0.127 | vemurafenib 0.014 | [5] 0.071 | givinostat -0.028 | barasertib -0.027

USP12 (UniProt O75317)
inactive: [6] 0.042 | vemurafenib -0.079 | [5] 0.082

USP46 (UniProt P62068)
inactive: [4] -0.073 | [1] -0.036 | [2] -0.058 | Nexturastat A 0.21 | vemurafenib -0.035 | [3] -0.084 | givinostat 0.247

UBN2 (UniProt Q6ZU65)
inactive: [2] 0.163 | vemurafenib 0.043

UTP14C (UniProt Q5TAP6)
inactive: [4] 0.084 | [2] 0.098 | Nexturastat A -0.075 | givinostat -0.042

UTP18 (UniProt Q9Y5J1)
inactive: [4] 0.066 | [6] 0.237 | [2] -0.335 | Nexturastat A 0.325 | givinostat -0.064 | barasertib -0.113

UBTF (UniProt P17480)
inactive: [4] -0.036 | [6] -0.032 | [2] 0.084 | [5] -0.293 | givinostat 0.147 | barasertib -0.02

UHRF1 isoform 2 (UniProt Q96T88)
inactive: givinostat 0.26

UBQLN3 (UniProt Q9H347)
inactive: [6] -0.098 | [1] -0.149 | [2] 0.113 | Nexturastat A -0.036 | vemurafenib -0.045 | [3] 0.033 | [5] -0.146 | givinostat 0.092
